Test results from publication PMC6560169.
These are yes or no findings as the source states them, for the method shown. Sequences can lack the tags named with a protein.

Experiments:
[1] = target: Tla3D2 (second DUF2875 domain of Tla3/PA0259), two-hybrid fusion (Pseudomonas aeruginosa); assay: two-hybrid; bacterial adenylate cyclase two-hybrid (BACTH): fusions to T18 and T25 of the Bordetella adenylate cyclase in E. coli BTH101, spotted on X-gal/IPTG plates, 30°C
[2] = target: Tla3D1 (first DUF2875 domain of Tla3/PA0259), two-hybrid fusion (Pseudomonas aeruginosa); assay: as above

B1: Tle3 fused downstream of the T18 or T25 domain (T18/T25-Tle3) (protein, UniProt Q9I6M9 1-716)
chain: MNDRVRSRTIVSAQSITLPKGGDVHLVPPPPKPCVTIVVHGVNDLAGCYERIERGLCQGLNERLDMPPTLPGGQANPGYLTPAGYSLPADDEGKAENPDVVYYRRKFASGAGGAAVRSVVVPFYWGFREEEQYINKTAAHGEWLDRNGNRLDKSGTKEGGQFVNATTNLPDMWGQGFNGKLFGFISLDWFGGTMTHPLFSAAGRKYMVLAAMRLAMLIKIIRKRYPDDTINVVGHSQGTLLTLLAHAFLKDDGVAPADGVIMLNSPYGLFEPLNEKLQGWSSQQTREARLATLKGILEFICGRRHPVPALSSVALRNCQGYGAIGGPGWVGGQGCQTTIDGERLSFDERDNRGSVYLYFTPQDQTVGLANVQGIGWRGIAEQVKGLPGRTGLPQGFHQRIFTVRKRNGEKEKIGGHAPPHVYPLLLAGEKTWEDTGLGGKDRFGRANFDQGDSVLLTAPRLPLPTEARFDFDGAVTAPGENSASGVYQVRDTLDPIDAAIGVSNGGWKEKDSGHAVAQQVDAALAYRYGRDARSVERALNEGKELAQQTHVFSARELGTGMVLVTRAETPYEARLRLQTAEGHLEPLSFHSAIPNNPEHNRRVLAYDLAIGAGDSVDDVVFYQYLCRVADWRLDWKASDKGIFSQGDASVDLPDEEVRALYRAEESKNSQLIDATVAYRKSGEFPVVVGNRLPSLVGTQTILDRYHEQAVRFGGTI
- binding [1]: no binding
- binding [2]: no binding
